# Reference: PubChem BioAssay AID743121 (NCATS, 2013)
# Assay: 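Genes whose silencing strengthens cell killing by camptothecin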 (primary screen)
# System: MDA-MB-231 cells, a human breast cancer line
# Knock-down reagent: single siRNA against human genes, 20 nM siRNA (0.8 pmol per well)
# Duration: 120 h (drug added 48 h after transfection, read 72 h later)
# Challenge: camptothecin 20 nM (about EC30) for 72 h; vehicle 0.1% DMSO in parallel plates
# Measured: 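CellTiter-Glo ATP signal, scaled to control siRNA as percent viability; sensitisation given as log2 of untreated divided by camptothecin-treated viability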
# Direction: log2 vehicle/camptothecin viability: higher = stronger sensitisation to camptothecin; viability with camptothecin and viability without drug: higher = more viable cells
# Rule for the call: 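Each gene scored by redundant siRNA activity (RSA) over its individual siRNA ratios; a gene is called active at p < 0.001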
# Shown is a random part of about 26,000 reagents. 167 of them (0.63%) were called active. 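Calls are per gene from RSA p-values that are not deposited; an individual active-marked siRNA can sensitise only weakly.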 The numbers tell different reagents against one gene apart.
gene symbol,siRNA no.,log2 vehicle/camptothecin viability,viability with camptothecin (% of control),viability without drug (% of control),outcome
SMARCAD1,1,-0.226,115,98.1,inactive
SMARCAD1,2,-0.386,94.4,72.2,inactive
SMARCAD1,3,-0.231,127,108,inactive
SMARCAD1,4,-0.242,51.2,43.3,inactive
OR7D2,1,-0.448,81,59.4,inactive
OR7D2,2,-0.138,95.7,86.9,inactive
OR7D2,3,-0.32,134,107,inactive
OR7D2,4,-0.563,82.5,55.9,inactive
MAN2A2,1,-0.225,127,109,inactive
MAN2A2,2,-0.302,66,53.5,inactive
MAN2A2,3,-0.232,99.9,85.1,inactive
RNF19B,1,-0.115,84.5,78,inactive
RNF19B,2,0.335,67.6,85.3,inactive
RNF19B,3,-0.134,81.1,73.9,inactive
RNF19B,4,-0.414,73.6,55.2,inactive
LRRC58,1,-0.277,70.1,57.9,inactive
LRRC58,2,-0.336,17.3,13.7,inactive
LRRC58,3,0.0643,100,105,inactive
FZD9,1,-0.0489,105,101,inactive
FZD9,2,0.142,104,114,inactive
FZD9,3,-0.239,118,99.7,inactive
FZD9,4,-0.148,35.8,32.3,inactive
MCHR1,1,-0.0238,76.7,75.4,inactive
MCHR1,2,-0.0093,49.2,48.8,inactive
MCHR1,3,-0.248,45.5,38.3,inactive
MCHR1,4,-0.16,64.1,57.4,inactive
TMEM254,1,-0.343,30.6,24.1,inactive
TMEM254,2,0.0111,103,103,inactive
TMEM254,3,0.363,62.4,80.2,inactive
TMEM254,4,-0.604,40.5,26.7,inactive
MKRN1,1,-0.244,51.1,43.2,inactive
MKRN1,2,-0.222,103,88.3,inactive
MKRN1,3,-0.413,67.4,50.7,inactive
MKRN1,4,-0.0353,81.1,79.1,inactive
GEMIN5,1,-0.394,48.2,36.7,inactive
GEMIN5,2,-0.517,118,82.6,inactive
GEMIN5,3,-0.133,123,113,inactive
GEMIN5,4,0.0914,78.5,83.7,inactive
C8G,1,-0.0422,68.1,66.1,inactive
C8G,2,-0.208,78,67.5,inactive
C8G,3,-0.103,106,98.6,inactive
ARIH1,1,0.00679,69.7,70,inactive
ARIH1,2,-0.171,43,38.2,inactive
ARIH1,3,-0.432,41.6,30.8,inactive
ARIH1,4,-0.308,78.5,63.4,inactive
RAB36,1,-0.5,70.1,49.6,inactive
RAB36,2,-0.112,74.9,69.3,inactive
RAB36,3,0.331,54.2,68.2,inactive
RAB36,4,0.29,68.2,83.4,inactive

As entered above:
MCHR1 #4, log2 vehicle/camptothecin viability: -0.16
Entry of MAN2A2 #2 in “viability without drug (% of control)”: 53.5
MKRN1 #2, viability without drug (% of control) = 88.3
FZD9 #4, viability with camptothecin (% of control): 35.8
